{"sequences": {"note": "By UniProt entry, the sequences of proteins in these tests, tags left out.", "UniProt Q00613": "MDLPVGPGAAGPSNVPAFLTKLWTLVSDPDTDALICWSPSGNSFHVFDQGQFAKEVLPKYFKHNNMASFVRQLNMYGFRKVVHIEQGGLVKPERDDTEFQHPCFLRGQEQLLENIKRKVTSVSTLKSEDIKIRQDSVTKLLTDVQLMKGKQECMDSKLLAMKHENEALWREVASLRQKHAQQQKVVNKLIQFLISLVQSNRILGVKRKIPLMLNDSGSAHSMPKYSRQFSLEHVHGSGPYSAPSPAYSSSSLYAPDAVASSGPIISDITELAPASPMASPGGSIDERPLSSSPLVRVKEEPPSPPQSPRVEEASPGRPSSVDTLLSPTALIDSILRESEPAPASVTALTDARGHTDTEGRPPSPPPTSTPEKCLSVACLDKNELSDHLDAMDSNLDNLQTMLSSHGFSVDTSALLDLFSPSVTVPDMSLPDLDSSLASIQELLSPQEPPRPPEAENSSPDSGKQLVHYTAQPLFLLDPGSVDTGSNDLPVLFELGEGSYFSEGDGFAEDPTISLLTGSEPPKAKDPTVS", "UniProt P46934": "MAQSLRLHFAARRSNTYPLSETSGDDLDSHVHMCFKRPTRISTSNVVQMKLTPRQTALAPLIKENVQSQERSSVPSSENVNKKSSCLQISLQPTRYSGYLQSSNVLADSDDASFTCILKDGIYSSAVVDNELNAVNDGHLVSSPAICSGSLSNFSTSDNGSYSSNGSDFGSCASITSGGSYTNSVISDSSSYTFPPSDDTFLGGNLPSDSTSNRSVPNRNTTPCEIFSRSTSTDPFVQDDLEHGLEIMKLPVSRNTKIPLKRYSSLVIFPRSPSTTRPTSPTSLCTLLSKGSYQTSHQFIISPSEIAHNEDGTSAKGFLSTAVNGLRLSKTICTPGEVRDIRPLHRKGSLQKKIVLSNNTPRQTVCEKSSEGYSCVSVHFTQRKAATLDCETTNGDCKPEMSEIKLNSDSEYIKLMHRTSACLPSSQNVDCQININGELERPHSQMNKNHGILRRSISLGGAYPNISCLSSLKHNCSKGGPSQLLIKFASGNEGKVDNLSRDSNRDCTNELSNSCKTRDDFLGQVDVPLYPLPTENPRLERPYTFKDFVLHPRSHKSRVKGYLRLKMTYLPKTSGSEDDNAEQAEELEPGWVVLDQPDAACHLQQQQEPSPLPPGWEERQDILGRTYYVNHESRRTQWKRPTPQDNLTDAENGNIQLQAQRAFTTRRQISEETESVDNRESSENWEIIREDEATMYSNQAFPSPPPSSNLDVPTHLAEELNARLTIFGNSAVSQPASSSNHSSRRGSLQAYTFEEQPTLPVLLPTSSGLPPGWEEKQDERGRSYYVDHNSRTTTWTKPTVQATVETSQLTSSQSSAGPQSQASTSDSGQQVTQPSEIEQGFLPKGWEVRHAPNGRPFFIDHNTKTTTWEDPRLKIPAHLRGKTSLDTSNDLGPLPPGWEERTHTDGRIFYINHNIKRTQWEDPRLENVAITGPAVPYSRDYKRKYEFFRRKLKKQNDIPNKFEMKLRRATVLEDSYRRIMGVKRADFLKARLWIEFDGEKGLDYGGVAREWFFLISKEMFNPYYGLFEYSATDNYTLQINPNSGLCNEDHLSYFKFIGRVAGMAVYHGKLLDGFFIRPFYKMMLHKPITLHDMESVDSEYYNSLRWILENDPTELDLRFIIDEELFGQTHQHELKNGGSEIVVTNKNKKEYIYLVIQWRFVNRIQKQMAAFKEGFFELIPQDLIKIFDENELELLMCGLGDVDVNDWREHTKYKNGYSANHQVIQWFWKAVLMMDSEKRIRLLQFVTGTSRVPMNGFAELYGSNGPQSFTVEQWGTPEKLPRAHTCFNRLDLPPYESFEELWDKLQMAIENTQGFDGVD"}, "source": "paper PMC4706110", "target": "heat shock transcription factor 1 (HSF1) (human (endogenous in SH-SY5Y)) (UniProt Q00613)", "experiment": "co-IP; endogenous HSF1 precipitated with anti-HSF1 antibody from whole-cell lysates of SH-SY5Y cells, three days after transfection of GFP-A53T alpha-syn or empty GFP vector alone or together with HA-Ub; immunoblot with anti-NEDD4; also with SIRT1 WT overexpression (interaction reduced, Fig. 5D)", "note": "Results are given in words; binding and its absence hold for the method and conditions named. In cells and extracts the contact can be indirect. Some results given as binding are weak or reduced against the parent protein; the word gives no strength."}
{"substance": "neural precursor cell expressed, developmentally down-regulated 4 (NEDD4) (from UniProt P46934 1-1319) (enzyme)", "values": [{"measurement": "binding", "value": "binds"}]}
